Test results as given in patent EP4671262A1 (Daebong LS Co., Ltd., priority 2023, dated 2024).

Test: peptide synthesis
Settings: whole synthesis, 220 nm

AAQPR (Ala-Ala-Gln-Pro-Arg) (printed: Ala-Ala-Gln-Pro-Arg)
purity (crude or final not stated): 95%
